Laboratory results: publication PMC12608118
These are yes or no findings as the source states them, for the method shown. Some entries that bind do so weakly or less than the wild type.

Protein sequences, listed by entry. Tags and fused reporters are not part of them. Lines headed by an entry give the natural chain unless they say otherwise; changes in a name come on top.
UniProt P30550: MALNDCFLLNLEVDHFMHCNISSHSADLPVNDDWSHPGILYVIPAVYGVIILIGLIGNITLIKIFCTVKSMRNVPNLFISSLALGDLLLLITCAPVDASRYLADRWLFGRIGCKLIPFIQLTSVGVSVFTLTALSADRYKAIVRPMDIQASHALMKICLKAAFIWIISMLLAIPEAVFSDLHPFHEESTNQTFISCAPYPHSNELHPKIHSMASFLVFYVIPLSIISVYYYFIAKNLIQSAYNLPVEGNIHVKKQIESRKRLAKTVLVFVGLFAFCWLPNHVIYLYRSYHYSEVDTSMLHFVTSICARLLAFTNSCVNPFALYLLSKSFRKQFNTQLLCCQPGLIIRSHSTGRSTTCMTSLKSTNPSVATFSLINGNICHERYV
UniProt P84213: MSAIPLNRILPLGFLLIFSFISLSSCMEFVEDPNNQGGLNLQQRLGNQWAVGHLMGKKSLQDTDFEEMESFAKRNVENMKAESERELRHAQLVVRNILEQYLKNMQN

Key:
[1] = molecular target: Gastrin-releasing peptide receptor (GRPR) (human (endogenous in DMS79)) (UniProt P30550); assay: flow cytometry on cells; DMS79 cells cultured under normoxia or hypoxia for 24 h, incubated with BBN-FITC at 3, 5 or 10 µM for 30 min at room temperature, washed with PBS; mean fluorescence intensity; only the binder purified
[2] = molecular target: Gastrin-releasing peptide receptor (GRPR) (human (endogenous in DMS79)) (UniProt P30550); assay: flow cytometry on cells; competition: DMS79 cells pre-incubated under normoxia or hypoxia for 24 h, BU peptide (5-10 µM) for 1 h, then BBN-FITC (10 µM) for 30 min at 37 °C in the dark, washed twice with cold PBS; MFI normalised to the untreated control; only the binder purified

Question: How did the binding [1] turn out when QQRLGNQWAVGHLM (peptide, UniProt P84213 42-55, FITC label (position not given)) [fluorescein isothiocyanate-labelled bombesin (BBN-FITC)] was run?
Answer: binds

Question: What about the binding [2] of the same binder?
Answer: binds
